Test results reported in PubChem BioAssay AID1508615 (Milbrandt Lab, Department of Genetics, Washington …, 2020).
Out of some 1,600 compounds screened, about 20 (1%) were called active.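 The calls were made as follows: active = ratio of uncleaved NAD to its breakdown product ADP-ribose above 4, meaning the enzyme was inhibited; inactive = the rest.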 The list shows a part of the results.

Chains of the proteins cited; added tags and fusions are not shown. Lines headed by an entry give the natural chain unless they say otherwise; changes in a name come on top.
UniProt Q6SZW1: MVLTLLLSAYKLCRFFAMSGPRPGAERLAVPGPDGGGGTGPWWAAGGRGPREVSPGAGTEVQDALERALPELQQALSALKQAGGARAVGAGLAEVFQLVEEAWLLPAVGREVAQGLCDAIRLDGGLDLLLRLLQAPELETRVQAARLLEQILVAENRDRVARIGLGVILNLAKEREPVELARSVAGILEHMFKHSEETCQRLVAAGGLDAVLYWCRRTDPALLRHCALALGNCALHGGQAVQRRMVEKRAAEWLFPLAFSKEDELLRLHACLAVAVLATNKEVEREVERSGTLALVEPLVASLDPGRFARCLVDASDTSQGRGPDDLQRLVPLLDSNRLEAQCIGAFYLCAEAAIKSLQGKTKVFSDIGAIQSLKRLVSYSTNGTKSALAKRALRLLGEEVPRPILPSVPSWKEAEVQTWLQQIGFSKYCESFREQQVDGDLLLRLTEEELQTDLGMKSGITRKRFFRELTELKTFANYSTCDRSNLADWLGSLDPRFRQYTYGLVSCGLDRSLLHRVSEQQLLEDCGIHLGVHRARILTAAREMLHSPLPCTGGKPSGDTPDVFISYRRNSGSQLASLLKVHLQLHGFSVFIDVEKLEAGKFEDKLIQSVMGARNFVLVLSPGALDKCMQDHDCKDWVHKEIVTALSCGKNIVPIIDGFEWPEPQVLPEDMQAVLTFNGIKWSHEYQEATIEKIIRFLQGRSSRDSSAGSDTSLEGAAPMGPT

What follows are compounds tested against NAD(+) hydrolase SARM1 (Homo sapiens) (UniProt Q6SZW1) (assay: SARM1 TIR NADase inhibitors by HPLC, primary screen, cell lysate, HPLC readout (AID 1508615;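 also: substrate NAD at 5 µM with 60 min at 37 °C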)). Conditions: HEK293T SAM-TIR lysate, at 5 µM, stronger effect = higher value.
In the case of `Cc1ccccc1NC(=S)Nc1ccccn1`, the NAD/ADPR ratio is reported as inactive: 3. For `O=S1(=O)CSCS(=O)(=O)C1`, the NAD/ADPR ratio was inactive: 3. With `Cc1ccc(C)c(C(=O)CCC(=O)O)c1` the NAD/ADPR ratio was inactive: 3. With `O=C1c2ccccc2C(=Cc2cccnc2)c2ccccc21` the NAD/ADPR ratio was inactive: 3. With `O=C(Nc1ccc(Nc2ccncc2)cc1)c1ccc(Nc2ccnc3ccc([N+](=O)[O-])cc23)cc1` the NAD/ADPR ratio was inactive: 3. For `CSc1nc(=S)cc(C)[nH]1`, the NAD/ADPR ratio was inactive: 3. `CCCOc1ccc(-c2nc(-c3ccc([N+](=O)[O-])cc3)cs2)cc1` was tested, and the NAD/ADPR ratio was inactive: 3. With `Cc1[nH]c(=S)[nH]c(=O)c1CCC1OCCO1` the NAD/ADPR ratio was inactive: 3. `CC(C)(C)N1CC(OC(N)=O)C1` was tested, and the NAD/ADPR ratio was inactive: 3. With `Cc1ccc(NCCN(C)C)c2c(=O)c3cc(O)ccc3sc12` the NAD/ADPR ratio was inactive: 3.2. For `c1ccc2c(c1)[nH]c1c3ccccc3sc21`, the NAD/ADPR ratio was inactive: 3. `NC(=O)Oc1cccc(OC(N)=O)c1` was tested, and the NAD/ADPR ratio was inactive: 3. `COc1c(NC(C)=O)c2ccccc2c2ccccc12` was tested, and the NAD/ADPR ratio was inactive: 3. In the case of `COc1ccccc1NC(=O)Oc1cccc(OC(=O)c2ccccc2)c1`, the NAD/ADPR ratio is reported as inactive: 3. `CCN(CC)CCN1C(=O)c2cccc3cc(N)cc(c23)C1=O` was tested, and the NAD/ADPR ratio was inactive: 3. For `Nc1c(Cl)cc(S(N)(=O)=O)cc1S(N)(=O)=O`, the NAD/ADPR ratio was inactive: 3. For `Cc1ccc(N=Nc2c(O)c3ccccc3[nH]c2=O)c(S(=O)(=O)N(C)C)c1`, the NAD/ADPR ratio was inactive: 3. In the case of `Cc1cc(NC(=O)c2ccccc2)c(Cl)cc1N`, the NAD/ADPR ratio is reported as inactive: 3. `O=C(c1ccc(O)cc1)c1ccc(C(=O)c2ccc(O)cc2)cc1` was tested, and the NAD/ADPR ratio was inactive: 3. In the case of `Cc1cccc2c1c1ccc3c(c1n2C)C(=O)C=CC3=O`, the NAD/ADPR ratio is reported as active: 8.3. With `O=c1[nH]cc(I)cc1I` the NAD/ADPR ratio was inactive: 3. `Cc1cc(=O)c2cc(C(=O)c3ccccc3)ccc2[nH]1` was tested, and the NAD/ADPR ratio was inactive: 3. In the case of `O=C(Nc1ccc(Nc2ccncc2)cc1)c1ccc([N+](=O)[O-])cc1`, the NAD/ADPR ratio is reported as inactive: 3. In the case of `COc1ccc(NC2=CC(=S)NC(C)(C)C2)cc1`, the NAD/ADPR ratio is reported as inactive: 3. In the case of `CCOC(=O)Nc1csnn1`, the NAD/ADPR ratio is reported as inactive: 3. In the case of `Cc1cc(NC(=O)Nc2cccc3ccccc23)no1`, the NAD/ADPR ratio is reported as inactive: 3. With `CCN(CC)CCNC(=O)c1ccc(NCN2C(=O)NC(c3ccccc3)(c3ccccc3)C2=O)cc1` the NAD/ADPR ratio was inactive: 3. In the case of `Cc1nc(SCC(=O)O)n[nH]1`, the NAD/ADPR ratio is reported as inactive: 3. For `Cn1c(=O)c2c(nc(N3CCOCC3)n2C)n(C)c1=O`, the NAD/ADPR ratio was inactive: 3. `C=CC1CN2CCC1CC2C(O)c1ccnc2ccc(OC)cc12` (stereo unspecified) was tested, and the NAD/ADPR ratio was inactive: 3. For `COc1cc(NC(C)=O)c2ncccc2c1NC(C)=O`, the NAD/ADPR ratio was inactive: 3. In the case of `COc1ccc(Nc2cc(Cl)ccc2C(=O)O)cn1`, the NAD/ADPR ratio is reported as inactive: 3. With `CCOC(=O)c1ccc2c(c1)NCc1cccc(OC)c1O2` the NAD/ADPR ratio was inactive: 3. `COc1cc(OC)c2c(=O)cc(-c3cccnc3)oc2c1` was tested, and the NAD/ADPR ratio was inactive: 3. In the case of `CN1CCC(=C(c2ccc(Cl)cc2)c2ccccn2)CC1`, the NAD/ADPR ratio is reported as inactive: 3. For `Cc1nn(-c2ccccc2)nc1C(=O)Nc1ccc2[nH]ncc2c1`, the NAD/ADPR ratio was inactive: 3. In the case of `O=C(C=C=Nc1ccccc1)C(=O)N=C=Cc1ccccc1`, the NAD/ADPR ratio is reported as inactive: 3. In the case of `Cc1ccc(C)c(-n2c(-c3ccc(Br)cc3)csc2=NC(=O)c2ccccc2F)c1`, the NAD/ADPR ratio is reported as inactive: 3. `O=C(Nc1ccc(F)cc1)OCCOc1ccc([N+](=O)[O-])cc1` was tested, and the NAD/ADPR ratio was inactive: 3. In the case of `COc1ccc(NC2=NC(C)(CO)CS2)cc1` (stereo unspecified), the NAD/ADPR ratio is reported as inactive: 3. `CCNc1ccccc1C(=O)O` was tested, and the NAD/ADPR ratio was inactive: 3. In the case of `CC(C)(C)c1ccc(NS(=O)(=O)c2ccc(N)cc2)cc1`, the NAD/ADPR ratio is reported as inactive: 3. For `NC(=O)CCC(C(=O)O)N1C(=O)c2ccc(O)cc2C1=O` (stereo unspecified), the NAD/ADPR ratio was inactive: 3. For `Cc1ccc(N=Nc2ccc(C)cc2NC(=O)Nc2ccccc2F)cc1`, the NAD/ADPR ratio was inactive: 3. `COc1cc(NC(=O)CCl)ccc(=O)c1` was tested, and the NAD/ADPR ratio was inactive: 3. In the case of `CC(=O)Oc1ccc(OC(C)=O)c2c1CC1(C)OC1(C)C2` (stereo unspecified), the NAD/ADPR ratio is reported as inactive: 3. For `Cc1[nH]c(=S)[nH]c(=O)c1Cc1c(O)ccc2ccccc12`, the NAD/ADPR ratio was inactive: 3. `NC(=O)N/N=C1\CC2CC1C1C=CCC21` (stereo unspecified) was tested, and the NAD/ADPR ratio was inactive: 3. For `O=C(O)c1ccccc1-c1ccccc1C(=O)Nc1ccc2c(c1)[nH]c(=O)c1ccccc12`, the NAD/ADPR ratio was inactive: 3. For `CCOC(=O)C(=O)C1C(=O)Nc2ccccc21` (stereo unspecified), the NAD/ADPR ratio was inactive: 3. `c1ccc(-c2nc(-c3nccc4ccccc34)oc2-c2ccccc2)cc1` was tested, and the NAD/ADPR ratio was inactive: 3. With `O=C(OCC(O)COC(=O)c1cccnc1)c1cccnc1` the NAD/ADPR ratio was inactive: 3. For `O=[N+]([O-])c1cccc(-c2nc3ccccc3s/c2=N/O)c1`, the NAD/ADPR ratio was inactive: 3. For `Nc1ccc(Oc2ccc(N)c([N+](=O)[O-])c2)cc1[N+](=O)[O-]`, the NAD/ADPR ratio was inactive: 3. `Cc1ccc(NC(=S)NC(=O)c2ccccc2)cc1NC(=S)NC(=O)c1ccccc1` was tested, and the NAD/ADPR ratio was inactive: 3. In the case of `O=[N+]([O-])c1ccccc1/C=C/C=N/N=C/c1ccccc1O`, the NAD/ADPR ratio is reported as inactive: 3. In the case of `O=C(O)C(Cc1ccccc1N(CCO)CCO)N1C(=O)c2ccccc2C1=O` (stereo unspecified), the NAD/ADPR ratio is reported as inactive: 3. For `Cc1nc(N)nc(Nc2ccc(C#N)cc2)c1Br`, the NAD/ADPR ratio was inactive: 3. With `CCN(CC)Cc1cc2[nH]c3c4ccc(Cl)cc4ncc3c2cc1OC` the NAD/ADPR ratio was inactive: 3. With `O=C1c2ccccc2C(=O)N1c1ncn[nH]1` the NAD/ADPR ratio was inactive: 3. For `CCCCN1C(=O)CC(C(=O)OCC)=C1C`, the NAD/ADPR ratio was inactive: 3. `CN(C)S(=O)(=O)N1C(=O)c2ccccc2C1=O` was tested, and the NAD/ADPR ratio was inactive: 3. With `CSc1ccc(NC(=O)Nc2cc(C)ccn2)cc1` the NAD/ADPR ratio was inactive: 3. With `Nc1ccc(N=Nc2ccccc2)c2ccccc12` the NAD/ADPR ratio was inactive: 3. `O=C(c1cccnc1)C1Cc2ccccc2C1=O` (stereo unspecified) was tested, and the NAD/ADPR ratio was inactive: 3. For `S=c1ncc2[nH]c(=S)[nH]c2[nH]1`, the NAD/ADPR ratio was inactive: 3.
